Assay results taken from the supplement of paper PMC10849652.
The list shows a part of the results.

Sequences of proteins named here, by UniProt entry; tags and fusion partners are left off. A change or cut given only in a name is not applied to a line headed by its entry.
UniProt Q9NZ52: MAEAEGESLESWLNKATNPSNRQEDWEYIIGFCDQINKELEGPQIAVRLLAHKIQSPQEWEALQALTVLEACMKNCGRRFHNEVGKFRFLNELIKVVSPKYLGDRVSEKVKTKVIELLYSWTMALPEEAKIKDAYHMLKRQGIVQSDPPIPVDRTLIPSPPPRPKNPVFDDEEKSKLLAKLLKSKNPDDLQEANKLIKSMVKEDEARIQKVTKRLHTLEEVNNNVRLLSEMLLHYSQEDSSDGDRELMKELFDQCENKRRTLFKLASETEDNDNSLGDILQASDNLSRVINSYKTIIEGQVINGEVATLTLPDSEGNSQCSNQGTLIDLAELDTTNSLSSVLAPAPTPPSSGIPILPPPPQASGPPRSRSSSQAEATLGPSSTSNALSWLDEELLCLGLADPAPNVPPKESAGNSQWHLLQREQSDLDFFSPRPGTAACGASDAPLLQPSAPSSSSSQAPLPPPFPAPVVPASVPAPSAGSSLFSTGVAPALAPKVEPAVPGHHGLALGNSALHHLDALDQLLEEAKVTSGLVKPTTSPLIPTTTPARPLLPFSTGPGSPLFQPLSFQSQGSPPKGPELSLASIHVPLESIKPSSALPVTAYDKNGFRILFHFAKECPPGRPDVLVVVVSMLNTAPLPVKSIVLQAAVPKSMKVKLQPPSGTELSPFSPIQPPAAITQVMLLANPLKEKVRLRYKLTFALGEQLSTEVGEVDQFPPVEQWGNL
UniProt Q9H4G4: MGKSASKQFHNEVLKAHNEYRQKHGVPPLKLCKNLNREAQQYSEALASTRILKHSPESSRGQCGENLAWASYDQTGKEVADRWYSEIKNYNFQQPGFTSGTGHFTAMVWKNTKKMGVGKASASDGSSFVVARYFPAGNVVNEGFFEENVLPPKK
UniProt P50148, whole entry, looked up: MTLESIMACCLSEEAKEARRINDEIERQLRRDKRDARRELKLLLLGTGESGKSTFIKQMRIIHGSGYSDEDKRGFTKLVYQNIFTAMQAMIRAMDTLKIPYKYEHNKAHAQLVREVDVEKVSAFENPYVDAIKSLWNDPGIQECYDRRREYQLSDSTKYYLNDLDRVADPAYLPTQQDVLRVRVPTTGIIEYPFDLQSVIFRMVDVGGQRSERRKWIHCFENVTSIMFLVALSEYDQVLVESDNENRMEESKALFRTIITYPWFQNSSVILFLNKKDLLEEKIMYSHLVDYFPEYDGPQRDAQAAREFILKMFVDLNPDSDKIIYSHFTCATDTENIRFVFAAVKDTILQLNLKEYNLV
UniProt Q08378: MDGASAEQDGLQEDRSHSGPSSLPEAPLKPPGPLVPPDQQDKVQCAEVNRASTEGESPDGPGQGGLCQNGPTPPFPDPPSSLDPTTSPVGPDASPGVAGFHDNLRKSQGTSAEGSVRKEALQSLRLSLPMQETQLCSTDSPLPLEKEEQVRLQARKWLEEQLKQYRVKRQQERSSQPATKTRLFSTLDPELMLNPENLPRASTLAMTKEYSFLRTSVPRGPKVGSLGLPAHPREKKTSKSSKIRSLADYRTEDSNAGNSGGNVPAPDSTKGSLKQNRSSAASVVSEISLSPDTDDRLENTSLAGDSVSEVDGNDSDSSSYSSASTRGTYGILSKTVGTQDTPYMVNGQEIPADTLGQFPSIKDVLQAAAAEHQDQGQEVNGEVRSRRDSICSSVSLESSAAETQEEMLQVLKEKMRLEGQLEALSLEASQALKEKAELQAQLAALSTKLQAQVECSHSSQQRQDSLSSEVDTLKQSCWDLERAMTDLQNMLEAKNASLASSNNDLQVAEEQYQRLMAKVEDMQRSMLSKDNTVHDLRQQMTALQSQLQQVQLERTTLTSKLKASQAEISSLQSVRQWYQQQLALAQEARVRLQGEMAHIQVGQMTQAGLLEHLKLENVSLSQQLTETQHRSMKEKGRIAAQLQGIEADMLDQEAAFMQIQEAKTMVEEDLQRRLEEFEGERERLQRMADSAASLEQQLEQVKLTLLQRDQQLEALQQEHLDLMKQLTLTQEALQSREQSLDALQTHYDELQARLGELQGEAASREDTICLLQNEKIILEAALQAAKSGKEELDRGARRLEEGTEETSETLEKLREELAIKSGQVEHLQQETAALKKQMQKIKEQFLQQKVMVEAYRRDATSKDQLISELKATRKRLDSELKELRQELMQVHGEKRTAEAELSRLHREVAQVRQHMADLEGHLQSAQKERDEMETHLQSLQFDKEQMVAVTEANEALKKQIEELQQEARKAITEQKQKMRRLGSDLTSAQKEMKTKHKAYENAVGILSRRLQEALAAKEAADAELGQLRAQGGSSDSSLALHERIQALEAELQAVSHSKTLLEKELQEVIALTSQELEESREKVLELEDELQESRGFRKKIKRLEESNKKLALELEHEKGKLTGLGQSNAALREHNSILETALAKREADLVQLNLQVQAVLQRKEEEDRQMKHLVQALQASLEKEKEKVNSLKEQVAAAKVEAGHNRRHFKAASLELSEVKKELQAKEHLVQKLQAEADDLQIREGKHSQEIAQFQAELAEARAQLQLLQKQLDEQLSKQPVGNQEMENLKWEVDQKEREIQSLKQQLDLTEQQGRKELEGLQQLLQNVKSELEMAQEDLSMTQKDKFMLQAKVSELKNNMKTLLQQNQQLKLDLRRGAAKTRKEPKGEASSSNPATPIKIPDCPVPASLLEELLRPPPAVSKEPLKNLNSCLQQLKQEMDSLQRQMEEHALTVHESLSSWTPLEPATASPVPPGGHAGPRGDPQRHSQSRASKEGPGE
UniProt Q8N954: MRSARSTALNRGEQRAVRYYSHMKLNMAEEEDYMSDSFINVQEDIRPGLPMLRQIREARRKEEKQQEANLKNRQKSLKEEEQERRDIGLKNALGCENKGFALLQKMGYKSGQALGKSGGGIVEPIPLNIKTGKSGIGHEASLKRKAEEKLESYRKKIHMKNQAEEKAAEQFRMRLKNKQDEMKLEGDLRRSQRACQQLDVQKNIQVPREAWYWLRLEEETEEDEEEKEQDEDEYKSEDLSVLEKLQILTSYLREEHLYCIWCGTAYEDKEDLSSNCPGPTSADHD
UniProt O14908: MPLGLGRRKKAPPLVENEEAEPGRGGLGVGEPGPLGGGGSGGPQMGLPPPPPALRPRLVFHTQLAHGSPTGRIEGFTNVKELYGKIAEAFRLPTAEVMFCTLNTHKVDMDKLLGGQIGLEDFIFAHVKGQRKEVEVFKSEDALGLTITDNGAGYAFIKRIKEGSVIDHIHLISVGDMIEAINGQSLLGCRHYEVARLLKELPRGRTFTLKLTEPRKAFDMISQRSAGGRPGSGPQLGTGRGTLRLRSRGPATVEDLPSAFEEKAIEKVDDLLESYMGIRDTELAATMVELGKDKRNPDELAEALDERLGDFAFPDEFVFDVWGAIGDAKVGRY
UniProt Q9UKD1: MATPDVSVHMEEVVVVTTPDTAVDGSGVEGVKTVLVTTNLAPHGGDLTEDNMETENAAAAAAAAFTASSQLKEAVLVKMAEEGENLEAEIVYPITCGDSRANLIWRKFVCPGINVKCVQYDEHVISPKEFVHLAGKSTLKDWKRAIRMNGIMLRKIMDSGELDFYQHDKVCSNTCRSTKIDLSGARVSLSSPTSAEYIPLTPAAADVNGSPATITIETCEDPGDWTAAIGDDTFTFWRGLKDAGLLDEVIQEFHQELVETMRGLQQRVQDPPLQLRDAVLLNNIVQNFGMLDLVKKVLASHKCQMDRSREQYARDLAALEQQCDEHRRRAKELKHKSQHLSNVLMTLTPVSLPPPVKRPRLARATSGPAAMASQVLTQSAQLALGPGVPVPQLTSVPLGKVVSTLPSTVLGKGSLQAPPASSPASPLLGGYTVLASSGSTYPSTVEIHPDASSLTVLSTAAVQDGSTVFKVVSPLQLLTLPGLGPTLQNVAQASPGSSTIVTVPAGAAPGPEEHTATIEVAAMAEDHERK
UniProt P49915: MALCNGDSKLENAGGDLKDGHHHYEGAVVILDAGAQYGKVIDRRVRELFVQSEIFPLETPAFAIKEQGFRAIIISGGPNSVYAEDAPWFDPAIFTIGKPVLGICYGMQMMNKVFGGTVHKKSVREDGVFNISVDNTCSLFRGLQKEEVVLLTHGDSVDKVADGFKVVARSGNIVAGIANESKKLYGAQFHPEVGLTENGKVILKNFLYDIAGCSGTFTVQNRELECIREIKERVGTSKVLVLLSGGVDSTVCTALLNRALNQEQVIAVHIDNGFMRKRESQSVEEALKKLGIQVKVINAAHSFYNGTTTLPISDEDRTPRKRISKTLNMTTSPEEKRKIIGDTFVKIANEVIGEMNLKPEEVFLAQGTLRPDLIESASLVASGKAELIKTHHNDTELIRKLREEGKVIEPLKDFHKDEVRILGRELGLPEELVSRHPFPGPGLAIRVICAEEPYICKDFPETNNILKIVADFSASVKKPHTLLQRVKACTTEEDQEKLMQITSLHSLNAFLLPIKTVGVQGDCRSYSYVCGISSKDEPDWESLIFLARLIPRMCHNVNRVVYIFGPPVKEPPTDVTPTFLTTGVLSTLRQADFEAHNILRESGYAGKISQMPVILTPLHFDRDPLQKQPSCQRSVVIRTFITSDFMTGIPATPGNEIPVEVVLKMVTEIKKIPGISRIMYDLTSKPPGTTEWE
UniProt Q8IVV7: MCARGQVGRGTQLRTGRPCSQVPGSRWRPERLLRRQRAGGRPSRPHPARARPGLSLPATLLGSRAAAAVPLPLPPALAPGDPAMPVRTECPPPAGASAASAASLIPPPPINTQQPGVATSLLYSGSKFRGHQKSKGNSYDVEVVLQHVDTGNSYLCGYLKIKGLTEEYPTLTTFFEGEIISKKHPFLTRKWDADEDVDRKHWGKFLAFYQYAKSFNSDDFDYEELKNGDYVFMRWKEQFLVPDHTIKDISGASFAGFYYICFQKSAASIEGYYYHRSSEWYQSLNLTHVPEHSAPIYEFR
UniProt P04899, whole entry, looked up: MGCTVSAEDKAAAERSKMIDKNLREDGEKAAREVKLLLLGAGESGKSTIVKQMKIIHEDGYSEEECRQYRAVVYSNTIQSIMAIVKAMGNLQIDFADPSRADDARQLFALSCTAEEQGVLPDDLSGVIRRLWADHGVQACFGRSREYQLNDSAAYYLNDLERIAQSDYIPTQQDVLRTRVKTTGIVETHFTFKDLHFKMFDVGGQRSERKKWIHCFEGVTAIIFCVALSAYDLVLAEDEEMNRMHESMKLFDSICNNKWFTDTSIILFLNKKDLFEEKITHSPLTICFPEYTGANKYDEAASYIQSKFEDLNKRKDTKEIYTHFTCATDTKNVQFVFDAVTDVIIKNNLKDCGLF
UniProt Q14344, whole entry, looked up: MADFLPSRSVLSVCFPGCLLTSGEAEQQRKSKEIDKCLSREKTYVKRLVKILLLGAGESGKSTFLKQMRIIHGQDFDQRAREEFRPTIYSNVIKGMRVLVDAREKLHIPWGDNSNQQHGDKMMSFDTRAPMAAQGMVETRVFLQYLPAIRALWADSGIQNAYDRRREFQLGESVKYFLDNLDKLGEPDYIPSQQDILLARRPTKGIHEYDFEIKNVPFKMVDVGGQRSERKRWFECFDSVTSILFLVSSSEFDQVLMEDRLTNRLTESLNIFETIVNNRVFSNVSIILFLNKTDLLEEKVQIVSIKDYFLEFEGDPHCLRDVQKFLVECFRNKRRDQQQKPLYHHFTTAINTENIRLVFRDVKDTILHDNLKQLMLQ
UniProt P49448: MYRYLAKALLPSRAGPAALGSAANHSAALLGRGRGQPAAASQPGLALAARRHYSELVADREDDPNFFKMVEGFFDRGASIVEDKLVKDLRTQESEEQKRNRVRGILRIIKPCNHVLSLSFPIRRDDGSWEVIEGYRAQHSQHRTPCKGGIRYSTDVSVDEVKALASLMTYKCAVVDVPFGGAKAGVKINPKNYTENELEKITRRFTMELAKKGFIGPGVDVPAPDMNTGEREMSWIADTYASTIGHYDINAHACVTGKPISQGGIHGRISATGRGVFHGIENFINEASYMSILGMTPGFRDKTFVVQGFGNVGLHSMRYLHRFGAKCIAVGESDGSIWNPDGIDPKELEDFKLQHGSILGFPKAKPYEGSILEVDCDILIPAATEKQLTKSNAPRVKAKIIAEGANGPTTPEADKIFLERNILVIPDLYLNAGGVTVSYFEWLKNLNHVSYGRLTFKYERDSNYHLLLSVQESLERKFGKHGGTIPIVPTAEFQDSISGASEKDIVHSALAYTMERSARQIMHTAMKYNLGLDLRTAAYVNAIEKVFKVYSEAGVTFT
UniProt P15104, whole entry, looked up: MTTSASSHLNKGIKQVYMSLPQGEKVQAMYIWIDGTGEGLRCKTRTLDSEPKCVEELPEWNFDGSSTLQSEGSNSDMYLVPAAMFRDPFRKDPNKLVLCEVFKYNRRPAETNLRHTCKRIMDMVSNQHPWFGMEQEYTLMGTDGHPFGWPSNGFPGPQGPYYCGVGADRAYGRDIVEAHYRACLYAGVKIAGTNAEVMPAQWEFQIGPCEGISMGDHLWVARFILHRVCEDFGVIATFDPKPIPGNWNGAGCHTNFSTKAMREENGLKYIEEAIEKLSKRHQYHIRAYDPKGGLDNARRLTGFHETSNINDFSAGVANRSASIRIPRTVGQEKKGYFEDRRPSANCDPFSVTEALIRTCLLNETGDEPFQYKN

Columns and labels:
Test in all cases: log2 fold change, soluble protein after heating vs DMSO (PISA); higher = thermal stabilisation; K562 lysate, 10 uM; active = over 0.2 and 3.5 SD of the protein, either way, in both replicates (recomputed)
ibrutinib = compound: C=CC(=O)N1CCC[C@@H](n2nc(-c3ccc(Oc4ccccc4)cc3)c3c(N)ncnc32)C1 [ibrutinib]
Outline: (§1)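 K562 pellets were dounce-homogenised in PBS pH 7.4 containing 1 mM MgCl2, and the crude extract, at 1 mg/mL protein, was exposed to 10 μM compound for 30 min. Aliquots were heated for 3 min across 48°C-58°C, pooled, brought to 0.5% NP-40 at 4°C and spun at 21,000xg for 90 min, with the supernatant taken as soluble protein. TMTpro 16plex LC-MS/MS with equalised channel sums quantified that protein. Values are log-two fold changes in thermal stability relative to solvent controls, taken from duplicates.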

[1] = compound: CC(=O)c1cnc2ccc(-c3cc(Cl)c(O)c(Cl)c3)nc2c1N[C@H]1CC[C@H](CN(C)C)CC1
Outline: as §1

ralimetinib = compound: CC(C)(C)Cn1c(N)nc2ccc(-c3[nH]c(C(C)(C)C)nc3-c3ccc(F)cc3)nc21 [ralimetinib]
Outline: as §1

[2] = compound: CC(C)(O)CC(=O)NCCn1ccc2ncnc(Nc3ccc(Oc4cccc(C(F)(F)F)c4)c(Cl)c3)c21
Outline: as §1

[3] = compound: CC(C)C1=C2N=C(C=C(N2N=C1)NCC3=CC=CC=C3)NCCCCCCN
Outline: as §1

[4] = compound: CC1=C(C(CC(=O)N1)C2=CC=C(C=C2)C(F)(F)F)C(=O)NC3=C(C=C4C(=C3)C=NN4)F
Outline: as §1

[5] = compound: CC1=C(C2=C(C=C1)C(=O)C3=CC=CC=C3N2CCCN)C
Outline: as §1

[6] = compound: CC1=C(C=C(C=C1)NC(=O)C2=CC(=CC=C2)C(C)(C)C#N)NC3=CC4=C(C=C3)N=CN(C4=O)C
Outline: as §1

[7] = compound: CC1=C(C=C(C=C1)NC(=O)C2=CC(=CC=C2)N(C)C)NC(=O)C3=CC=C(C=C3)O
Outline: as §1

[8] = compound: CC1=CC=C(C=C1)SC2=C3C=C(SC3=CN=C2)C(=O)N
Outline: as §1

Measured: log2 fold change

GGA3 (UniProt Q9NZ52)
inactive: ibrutinib 0.004 | [1] 0.01 | ralimetinib 0.049 | [2] 0.029 | [3] -0.024 | [4] 0.036 | [5] 0.039 | [6] -0.025 | [7] 0.021 | [8] -0.019

GLIPR2 (UniProt Q9H4G4)
inactive: ibrutinib -0.032 | [1] 0 | ralimetinib -0.122 | [2] 0.045 | [3] 0.04 | [4] 0.018 | [5] -0.004 | [6] -0.037 | [7] 0.048 | [8] 0.054

GINS4 (UniProt Q9BRT9)
inactive: ibrutinib 0.001 | [1] -0.004 | ralimetinib -0.011 | [2] -0.034 | [3] -0.001 | [4] -0.011 | [5] 0.012 | [6] 0.022 | [7] 0.012 | [8] -0.015

GMFG (UniProt O60234)
inactive: ibrutinib 0.04 | [1] 0.057 | ralimetinib 0.085 | [2] 0.045 | [3] -0.003 | [4] -0.042 | [5] 0.061 | [6] 0.011 | [7] -0.024 | [8] 0

GNB2 (UniProt P62879)
inactive: ibrutinib -0.006 | [1] 0.023 | ralimetinib 0 | [2] 0.024 | [3] -0.029 | [4] -0.042 | [5] 0.032 | [6] 0.009 | [7] -0.041 | [8] 0.039

GNL3 (UniProt Q9BVP2)
inactive: ibrutinib 0.023 | [1] -0.063 | ralimetinib -0.026 | [2] -0.021 | [3] 0.05 | [4] -0.005 | [5] -0.073 | [6] 0.009 | [7] -0.007 | [8] -0.057

GNPNAT1 (UniProt Q96EK6)
inactive: ibrutinib 0.051 | [1] -0.021 | ralimetinib 0.012 | [2] -0.008 | [3] 0.035 | [4] 0.009 | [5] 0.019 | [6] 0.078 | [7] -0.027 | [8] -0.014

GPKOW (UniProt Q92917)
inactive: ibrutinib 0.007 | [1] -0.005 | ralimetinib 0.009 | [2] -0.03 | [3] 0 | [4] 0 | [5] 0.027 | [6] -0.003 | [7] -0.006 | [8] 0.009

GHITM (UniProt Q9H3K2)
inactive: ibrutinib -0.009 | [1] 0.015 | ralimetinib -0.008 | [2] -0.028 | [3] 0.012 | [4] -0.016 | [5] -0.006 | [6] 0.053 | [7] -0.004 | [8] -0.003

GMPR2 isoform 2 (UniProt Q9P2T1)
inactive: ibrutinib 0.014 | [1] -0.005 | ralimetinib -0.01 | [2] -0.018 | [3] -0.043 | [4] -0.016 | [5] 0.004 | [6] 0.018 | [7] -0.002 | [8] -0.021

GNAQ (UniProt P50148)
inactive: ibrutinib -0.033 | [1] 0.051 | ralimetinib -0.022 | [2] -0.108 | [3] -0.058 | [4] -0.084 | [5] 0.036 | [6] 0.045 | [7] 0.082 | [8] -0.012

GOLGA3 (UniProt Q08378)
inactive: ibrutinib 0.033 | [1] 0 | ralimetinib 0.007 | [2] -0.024 | [3] -0.016 | [4] 0.007 | [5] -0.004 | [6] 0.005 | [7] -0.002 | [8] -0.011

GPI (UniProt P06744)
inactive: ibrutinib 0 | [1] 0.011 | ralimetinib 0.018 | [2] 0.019 | [3] -0.006 | [4] -0.012 | [5] 0.031 | [6] -0.025 | [7] -0.023 | [8] -0.001

GPATCH11 (UniProt Q8N954)
inactive: ibrutinib 0.031 | [1] -0.012 | ralimetinib 0.006 | [2] -0.01 | [3] 0.002 | [4] -0.003 | [5] -0.017 | [6] 0.03 | [7] 0.005 | [8] -0.03

Two entries picked at random from the list so far, as already listed:
GNAQ (UniProt P50148)
inactive: ibrutinib -0.033 | [1] 0.051 | ralimetinib -0.022 | [2] -0.108 | [3] -0.058 | [4] -0.084 | [5] 0.036 | [6] 0.045 | [7] 0.082 | [8] -0.012

GMPR2 isoform 2 (UniProt Q9P2T1)
inactive: ibrutinib 0.014 | [1] -0.005 | ralimetinib -0.01 | [2] -0.018 | [3] -0.043 | [4] -0.016 | [5] 0.004 | [6] 0.018 | [7] -0.002 | [8] -0.021

Next part:

GIPC1 (UniProt O14908)
inactive: ibrutinib 0.008 | [1] -0.059 | ralimetinib 0.022 | [2] -0.004 | [3] -0.071 | [4] -0.021 | [5] 0.044 | [6] -0.027 | [7] 0.013 | [8] -0.012

GLS isoform 3 (UniProt O94925)
inactive: ibrutinib -0.039 | [1] -0.017 | ralimetinib 0.028 | [2] 0.024 | [3] 0.098 | [4] 0.007 | [5] 0.046 | [6] 0.011 | [7] 0.028 | [8] -0.034

GMEB2 (UniProt Q9UKD1)
inactive: ibrutinib 0.032 | [1] -0.03 | ralimetinib 0.007 | [2] -0.017 | [3] 0.007 | [4] 0.032 | [5] 0.127 | [6] 0.024 | [7] 0.071 | [8] 0.027

GNAS isoform 2 (UniProt Q5JWF2)
inactive: ibrutinib 0.027

GPAA1 (UniProt O43292)
inactive: ibrutinib 0.067 | [1] 0.037 | ralimetinib 0.015 | [2] -0.142 | [3] -0.062 | [4] 0.009 | [5] -0.038 | [6] -0.005 | [7] 0.039 | [8] 0.012

GMPS (UniProt P49915)
inactive: ibrutinib -0.034 | [1] 0.003 | ralimetinib 0.009 | [2] 0.013 | [3] 0.006 | [4] -0.032 | [5] 0.025 | [6] -0.024 | [7] 0.015 | [8] 0.02

GPATCH8 (UniProt Q9UKJ3)
inactive: ibrutinib 0.041 | [1] -0.059 | ralimetinib 0.013 | [2] -0.013 | [3] 0.033 | [4] 0.023 | [5] -0.008 | [6] -0.186 | [7] 0.031 | [8] -0.02

GLYR1 (UniProt Q49A26)
inactive: ibrutinib 0.113 | [1] 0.017 | ralimetinib 0.038 | [2] -0.15 | [3] 0.033 | [4] 0.07 | [6] 0.126 | [7] 0.106 | [8] 0.032
active: [5] -0.339

GID4 (UniProt Q8IVV7)
inactive: ibrutinib 0.006 | [1] 0.02 | ralimetinib 0.006 | [2] -0.004 | [3] 0.001 | [4] 0.033 | [5] -0.062 | [6] -0.013 | [7] 0.027 | [8] 0.015

GNAI2 (UniProt P04899)
inactive: ibrutinib 0.004 | [1] -0.012 | ralimetinib 0.017 | [2] -0.035 | [3] -0.023 | [4] -0.005 | [5] 0.006 | [6] 0.044 | [7] -0.022 | [8] 0.001

GNA13 (UniProt Q14344)
inactive: ibrutinib -0.006 | [1] -0.024 | ralimetinib 0.014 | [2] -0.016 | [3] -0.04 | [4] 0.02 | [5] -0.015 | [6] 0.01 | [7] -0.03 | [8] -0.019

GLUD2 (UniProt P49448)
inactive: ibrutinib -0.063 | [1] 0.063 | ralimetinib 0.02 | [2] -0.043 | [3] -0.012 | [4] 0.018 | [5] -0.028 | [6] 0.061 | [7] 0.001 | [8] 0.033

GPAT3 (UniProt Q53EU6)
inactive: ibrutinib 0.013 | [1] 0.03 | ralimetinib 0.039 | [2] -0.059 | [3] 0.035 | [4] 0.061 | [5] 0.021 | [6] -0.019 | [7] 0.006 | [8] 0.006

GNAI3 (UniProt P08754)
inactive: ibrutinib 0.027 | [1] -0.023 | ralimetinib -0.001 | [2] 0.005 | [3] -0.056 | [4] 0.046 | [5] -0.022 | [6] 0.036 | [7] 0.039 | [8] -0.032

GLDC (UniProt P23378)
inactive: ibrutinib -0.163

GLUL (UniProt P15104)
inactive: ibrutinib 0.031 | [1] 0.004 | ralimetinib 0.006 | [2] -0.002 | [3] -0.008 | [4] 0.026 | [5] 0.023 | [6] -0.117 | [7] -0.011 | [8] 0.031

GNPAT (UniProt O15228)
inactive: ibrutinib 0.031 | [1] 0.031 | ralimetinib 0.068 | [2] -0.066 | [3] -0.071 | [4] -0.032 | [5] 0.008 | [6] -0.045 | [7] -0.012 | [8] 0.007
